Microarray screen: hit calls

Targets, with sequences 5′ to 3′:
TPP: TPP riboswitch RNA three-way junction, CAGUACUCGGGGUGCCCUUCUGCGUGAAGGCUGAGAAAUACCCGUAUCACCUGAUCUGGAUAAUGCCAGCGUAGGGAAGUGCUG. About 24,000 compounds screened, about 160 hits.
SAM-II: SAM-II riboswitch RNA pseudoknot, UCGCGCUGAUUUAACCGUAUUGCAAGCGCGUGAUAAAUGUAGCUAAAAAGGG. About 21,000 compounds screened, about 200 hits.
PreQ1: PreQ1 riboswitch RNA pseudoknot, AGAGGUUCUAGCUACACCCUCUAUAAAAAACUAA. From B. subtilis. About 24,000 compounds screened, about 170 hits.

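Compounds were printed on reactive glass slides in duplicate spots, a dye-labelled oligonucleotide was laid over them, and the fluorescence left after washing was read. The data file lists only calls. An earlier report of the laboratory on the PreQ1, TPP and SAM-II riboswitches (doi:10.1038/s41467-019-09493-3) used 1 µM RNA for 2 h and required a mean Z-score above 3 (spot signal-to-noise against the whole library), a score well above that on a control array, and duplicate spots agreeing (coefficient of variation under 100); it then also set aside compounds that hit other targets, which this list keeps. The cut-offs behind this list may differ. The calls come from the array alone, and fixing a compound to the slide can hide its binding.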
“1” means called a hit, “0” means screened and not called a hit.
Compounds were drawn at random from those tested, without regard to their results.
A dash means that no call is listed here.

compound | TPP | SAM-II | PreQ1
CCCCCc1nc(N)c(C#N)c(-c2ccco2)c1CCCC | 0 | 0 | 0
CCOC(=O)c1sc2nc(CC(=O)OC)nc(Nc3cc(C)ccc3OC)c2c1C | 0 | 0 | 0
Nc1nc2c(s1)C(c1ccc(F)cc1F)CC(=O)N2 (centres undefined) | 0 | 0 | 0
Cc1nn2c(NCCN3CCOCC3)cc(C(C)(C)C)nc2c1-c1ccccc1 | 0 | - | 0
Cc1nc(N)ncc1C(=O)NCc1cccnc1Oc1ccccc1F | 0 | 0 | 0
OC1CCCOC12CCN(c1nnc(-c3ccccc3)s1)CC2 (centres undefined) | 0 | 0 | 0
Cc1ccccc1NC(=O)N1C[C@@H](O)[C@H](NCc2ncccc2C)C1 | 0 | 0 | 0
CC(C)CC(O)C1CCN(Cc2cnc(-c3ccccn3)nc2)CC1 (centres undefined) | 0 | 0 | 0
CN(Cc1ccc(Oc2ccccc2)cc1)C(=O)CCN | 0 | 0 | 0
COc1ccc(C=Cc2nc(CCNc3ccccc3)no2)cc1 | 0 | - | 0
C=CCNC1=C2C[C@@H](C)C[C@H](OC)[C@@H](O)[C@@H](C)/C=C(/C)[C@H](OC(N)=O)[C@@H](OC)/C=C\C=C(\C)C(=O)NC(=CC1=O)C2=O | 0 | 0 | 0
CC(O)Cc1nsc(NC(=O)c2cccc(F)c2)n1 (centres undefined) | 0 | 0 | 0
Nc1ccccc1SC1CC(=O)N(c2ccc(Cl)c(Cl)c2)C1=O (centres undefined) | 0 | 0 | 0
CCSc1nc(-c2ccc(C)cc2)nc2c1Cc1c(CO)cnc(C)c1O2 | 0 | - | 0
Nc1ccc2nonc2c1 | 0 | 0 | 0
Cc1cc(C)c2c(CC(=O)N[C@@H]3C[C@@H](CO)N(C)C3)coc2c1C | 0 | 0 | 0
Cn1c(CO)nnc1C1CCN(CC2CCOc3ccccc3C2)CC1 (centres undefined) | 0 | 0 | 0
N=c1n(CCO)c2ccccc2n1CCOc1ccccc1Cl | 0 | 0 | 0
Cc1ccc2c(c1)SC(=Cc1sc3ccccc3[n+]1C)N2CCO | 0 | 0 | 0
CCCCC(=O)N1CCN(c2cc(C)nc(Nc3ccc(C)cc3)n2)CC1 | 0 | - | 0
Cc1cnccc1N1CCCN(C(=O)c2cccc(C3CCCNC3)c2)CC1 (centres undefined) | 0 | 0 | 0
Cc1c(S(=O)(=O)c2ccc(F)cc2)c(N)n(C2CCCCC2)c1C | 0 | 0 | 0
Cl.OC(COc1ccc2c(c1)CCC2)CSc1ccccn1 (centres undefined) | 0 | 0 | 0
CC(=O)NCCNc1ccc(C(=O)O)cc1[N+](=O)[O-] | 0 | 0 | 0
CCOC(=O)c1ccc(Nc2cc(-c3ccc(OC)cc3)nc(C)n2)cc1 | 0 | - | 0
COc1ccc(-c2cnc(NCc3ccc(C(C)C)cc3)n2C)cc1 | 0 | 0 | 0
CN(C)CCCNc1ncnc2c1sc1nc(-c3ccco3)c3c(c12)CC(C)(C)OC3 | 0 | 0 | 0
OCCn1nc(COc2ccccc2)nc1-c1ccc2[nH]nnc2c1 | 0 | 0 | 0
CCNC(=O)c1cccc(-c2ccc(F)cc2CN)c1 | 0 | 1 | 0
OCCNc1ncnc2ccc(-c3cccc(O)c3)cc12 | 0 | 0 | 0
NC1CCC(Nc2nc(Nc3ccc(C(=O)N4CCCCC4)cc3)c3ncn(-c4cccc(F)c4)c3n2)CC1 (centres undefined) | 0 | 0 | 0
Cc1ccccc1N1CCN(Cc2ccc(C#CCO)s2)C(C)C1 (centres undefined) | 0 | 0 | 0
N#Cc1ccc(CSc2nnc3nc(O)cc(N)n23)cc1 | 0 | 0 | 0
CC1CCN(S(=O)(=O)c2ccc(-c3nc(C#N)c(NCCCN(C)C)o3)cc2)CC1 | 0 | - | 0
Cc1ccc(OCC(O)Cn2cnc3ccccc32)cc1C (centres undefined) | 0 | - | 0
CC(=NNc1nc(C)cc(-c2ccccc2)n1)c1ccc(N)cc1 | 0 | 1 | 0
Cc1cccc(NC(=O)c2cnn(C(=O)c3ccccc3)c2N)c1 | 0 | 0 | 0
CCCNc1cc(C(C)C)nc2nc(-c3cccnc3)nn12 | 0 | - | 0
CCCc1n[nH]c2c1C(c1ccc(O)cc1)C(C#N)=C(N)O2 (centres undefined) | 0 | 0 | 0
CCOC(=O)c1cccc(Nc2c(-c3ccc(C(=O)OC)cc3)nc3cnccn23)c1 | 0 | - | 0
Cc1ccc(-c2nc3cccc(C)n3c2Nc2ccc(F)cc2)o1 | 0 | 0 | 0
CN(Cc1cc(C(C)(C)C)n[nH]1)c1nc(-c2cccnc2)nc2c1CCNC2 | 0 | 0 | 0
O=C(O)C(=O)O.OC(CNCCc1ccccc1)CN1c2ccccc2Sc2ccccc21 (centres undefined) | 0 | 0 | 0
CCCc1ncncc1C(=O)N1CCCC(Nc2ccc3c(c2)OCCO3)C1 (centres undefined) | 0 | 0 | 0
CNC(=O)c1ccc2c(c1SCCO)C(=O)c1ccccc1C2=O | 0 | 0 | 0
Cc1cccc(OCCn2c(=N)n(CCO)c3ccccc32)c1 | 0 | 0 | 0
CCc1ccc(NC(=O)c2nnn(CC(=O)Nc3ccccc3)c2N)cc1 | 0 | 0 | 0
CN1CCN(C(=O)C2CNCCN2C(=O)c2ccc(Cl)cn2)CC1 (centres undefined) | 0 | 0 | 0
O=c1[nH]cc(I)cc1I | 0 | 0 | 0
Nc1ccc2cc[nH]c2c1 | 0 | 0 | 0
CCOC(=O)C1CCN(c2c(Nc3ccc(C)c(C)c3)c(=O)c2=O)CC1 | 0 | 0 | 0
O=C(Cn1nc2ccccc2n1)N1Cc2ccccc2C(O)C1 (centres undefined) | 0 | 0 | 0
COc1ccc(OC)c(C(=O)c2oc3ccccc3c2N)c1 | 0 | 0 | 0
CNCC(O)C(O)C(O)C(O)CO.O=C(O)c1ccc(-c2cc3cccnc3c(-c3ccc4nonc4c3)n2)cc1 | 0 | 0 | 0
COc1ccc(-c2nc3nc(C)cc(Nc4ccc(C(C)=O)cc4)n3n2)cc1 | 0 | - | 0
Cn1c(CNC2CCCCC2)nc2ccccc21 | 0 | 0 | 0
COc1ccc(C(=O)c2c(N)sc3c2CCCC3)cc1 | 0 | 0 | 0
CC(C)(C)c1nc(S(=O)(=O)c2ccccc2)c(NCc2ccccc2)o1 | 0 | 0 | 0
C[C@@]1(O)CCN(CCC(=O)NCc2ccccc2F)C[C@@H]1O | 0 | 0 | 0
Cc1c(S(=O)(=O)c2ccccc2)c(N)n(CCC2=CCCCC2)c1C | 0 | 0 | 0
CCC[C@H]1CN(Cc2ccc(N(C)C)nc2)C[C@@H]1NC(=O)CO | 0 | 0 | 0
O=C(OC1CCCC1)c1ccc(NC(=O)N2CCC3(CC2)CC(O)CO3)cc1 (centres undefined) | 0 | 0 | 0

Some entries from above, unchanged:

compound	TPP	SAM-II	PreQ1
Cc1cnccc1N1CCCN(C(=O)c2cccc(C3CCCNC3)c2)CC1 (centres undefined)	0	0	0
CCSc1nc(-c2ccc(C)cc2)nc2c1Cc1c(CO)cnc(C)c1O2	0	-	0
CN(Cc1cc(C(C)(C)C)n[nH]1)c1nc(-c2cccnc2)nc2c1CCNC2	0	0	0
O=C(Cn1nc2ccccc2n1)N1Cc2ccccc2C(O)C1 (centres undefined)	0	0	0
C[C@@]1(O)CCN(CCC(=O)NCc2ccccc2F)C[C@@H]1O	0	0	0

Calls as published in the ROBIN set (doi:10.1002/anie.202211358).